Data taken from US20160067305A1.
Results are given in words; binding and its absence hold for the method and conditions named. Binding seen in cells or lysates may run through a third protein. Some entries that bind do so weakly or less than the wild type.

Amino acid sequences for entries named in this document (tags omitted). A change or cut given only in a name is not applied to a line headed by its entry. Residues count along the entry.
UniProt Q96EB6: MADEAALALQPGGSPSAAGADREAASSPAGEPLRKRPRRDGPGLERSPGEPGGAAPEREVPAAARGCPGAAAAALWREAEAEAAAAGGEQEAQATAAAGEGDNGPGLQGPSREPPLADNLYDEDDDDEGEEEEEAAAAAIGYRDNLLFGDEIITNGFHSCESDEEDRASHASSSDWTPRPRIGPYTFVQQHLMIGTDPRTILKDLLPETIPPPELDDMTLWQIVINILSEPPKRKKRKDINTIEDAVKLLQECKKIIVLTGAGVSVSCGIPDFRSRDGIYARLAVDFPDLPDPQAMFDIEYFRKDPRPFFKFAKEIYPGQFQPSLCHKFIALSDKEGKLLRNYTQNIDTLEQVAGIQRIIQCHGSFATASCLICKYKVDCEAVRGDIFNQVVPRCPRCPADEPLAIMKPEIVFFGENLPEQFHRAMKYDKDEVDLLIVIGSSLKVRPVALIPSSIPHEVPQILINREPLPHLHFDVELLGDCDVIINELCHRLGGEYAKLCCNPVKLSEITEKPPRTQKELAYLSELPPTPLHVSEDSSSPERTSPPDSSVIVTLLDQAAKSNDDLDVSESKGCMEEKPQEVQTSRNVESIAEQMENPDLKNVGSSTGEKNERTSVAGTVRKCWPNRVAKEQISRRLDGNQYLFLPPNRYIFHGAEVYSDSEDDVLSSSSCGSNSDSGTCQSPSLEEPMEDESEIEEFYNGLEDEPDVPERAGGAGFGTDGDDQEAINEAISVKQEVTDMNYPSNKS
endogenous SIRT1 of HEK293 cells: residues 2-747 of Q96EB6
UniProt P02545, residues 1-646: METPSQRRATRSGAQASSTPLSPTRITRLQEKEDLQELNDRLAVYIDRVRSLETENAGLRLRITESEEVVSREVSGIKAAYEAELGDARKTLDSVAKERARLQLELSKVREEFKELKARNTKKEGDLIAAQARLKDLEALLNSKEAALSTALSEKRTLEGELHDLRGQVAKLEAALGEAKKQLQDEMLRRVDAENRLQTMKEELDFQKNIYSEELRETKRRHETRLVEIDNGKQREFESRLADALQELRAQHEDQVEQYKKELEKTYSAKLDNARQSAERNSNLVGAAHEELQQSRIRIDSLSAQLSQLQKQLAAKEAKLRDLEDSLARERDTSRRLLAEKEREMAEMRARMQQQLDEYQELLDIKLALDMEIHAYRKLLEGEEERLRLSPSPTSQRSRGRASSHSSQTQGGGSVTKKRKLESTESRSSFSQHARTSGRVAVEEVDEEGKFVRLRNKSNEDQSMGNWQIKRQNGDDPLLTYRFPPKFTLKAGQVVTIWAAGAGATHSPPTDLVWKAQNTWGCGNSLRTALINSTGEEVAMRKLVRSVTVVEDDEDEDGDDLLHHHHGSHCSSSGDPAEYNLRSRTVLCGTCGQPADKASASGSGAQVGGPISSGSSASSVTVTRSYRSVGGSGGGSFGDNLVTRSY
UniProt P48678, residues 1-662: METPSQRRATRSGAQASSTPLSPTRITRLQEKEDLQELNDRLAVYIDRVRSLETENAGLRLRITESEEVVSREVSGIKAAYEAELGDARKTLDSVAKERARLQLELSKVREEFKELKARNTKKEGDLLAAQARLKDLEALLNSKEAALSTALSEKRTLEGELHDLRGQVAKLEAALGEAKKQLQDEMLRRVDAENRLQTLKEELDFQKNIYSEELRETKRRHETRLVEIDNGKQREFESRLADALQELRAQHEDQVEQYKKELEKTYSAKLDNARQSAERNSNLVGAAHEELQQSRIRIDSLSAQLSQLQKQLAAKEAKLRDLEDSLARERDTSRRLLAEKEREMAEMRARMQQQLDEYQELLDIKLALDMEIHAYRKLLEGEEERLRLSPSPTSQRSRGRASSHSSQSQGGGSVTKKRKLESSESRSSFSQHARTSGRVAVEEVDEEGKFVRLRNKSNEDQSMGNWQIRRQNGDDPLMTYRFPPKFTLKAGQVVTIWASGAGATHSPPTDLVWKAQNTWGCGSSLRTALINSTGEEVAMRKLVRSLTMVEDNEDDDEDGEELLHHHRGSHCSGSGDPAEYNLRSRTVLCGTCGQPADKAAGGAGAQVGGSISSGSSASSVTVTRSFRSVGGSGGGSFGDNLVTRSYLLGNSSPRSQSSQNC

What was measured:
[1] = biological target: endogenous SIRT1 of HEK293 cells (UniProt Q96EB6); experiment: reciprocal co-immunoprecipitation of endogenous proteins, HEK293 cells (FIG. 1B)
[2] = biological target: endogenous SIRT1 of HEK293 cells (UniProt Q96EB6); experiment: reciprocal co-immunoprecipitation of endogenous proteins from HEK293 lysate (FIG. 1B)
[3] = biological target: T1, endogenous SIRT1 of mouse bone marrow stromal cells and mouse embryonic fibroblasts (mouse) (UniProt Q923E4); experiment: anti-SIRT1 co-immunoprecipitation in Zmpste24^-/- BMSCs with or without resveratrol, immunoblot (FIG. 4C)
T1 sequence (looked up): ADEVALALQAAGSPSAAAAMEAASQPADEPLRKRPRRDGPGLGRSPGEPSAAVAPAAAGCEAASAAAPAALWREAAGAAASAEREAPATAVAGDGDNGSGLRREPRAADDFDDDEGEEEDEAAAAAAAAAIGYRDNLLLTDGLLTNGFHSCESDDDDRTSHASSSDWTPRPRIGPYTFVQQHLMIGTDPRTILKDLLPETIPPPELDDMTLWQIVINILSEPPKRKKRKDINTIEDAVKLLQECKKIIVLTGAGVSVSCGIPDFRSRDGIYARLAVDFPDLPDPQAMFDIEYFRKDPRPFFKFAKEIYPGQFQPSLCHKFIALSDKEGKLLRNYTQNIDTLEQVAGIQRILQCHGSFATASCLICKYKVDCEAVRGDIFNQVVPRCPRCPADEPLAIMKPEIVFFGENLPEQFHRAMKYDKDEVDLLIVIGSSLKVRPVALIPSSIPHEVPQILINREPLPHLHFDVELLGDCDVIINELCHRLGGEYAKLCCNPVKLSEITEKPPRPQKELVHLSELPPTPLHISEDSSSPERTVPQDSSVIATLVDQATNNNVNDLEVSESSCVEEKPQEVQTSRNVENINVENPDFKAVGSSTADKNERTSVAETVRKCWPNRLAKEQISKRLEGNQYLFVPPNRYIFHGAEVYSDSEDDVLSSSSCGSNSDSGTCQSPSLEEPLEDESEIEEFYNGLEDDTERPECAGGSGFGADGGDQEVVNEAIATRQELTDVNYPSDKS

[4] = biological target: recombinant human SIRT1 (human) (UniProt Q96EB6); experiment: in vitro pull-down of recombinant proteins (FIG. 1E)
[5] = biological target: recombinant human SIRT1 (human) (UniProt Q96EB6); experiment: in vitro pull-down of recombinant proteins with anti-lamin A antibody (FIG. 1E)
[6] = biological target: recombinant human SIRT1 (human) (UniProt Q96EB6); experiment: in vitro pull-down of recombinant proteins with anti-lamin A antibody (FIG. 11A)
[7] = biological target: recombinant human SIRT1 (human) (UniProt Q96EB6); experiment: in vitro co-immunoprecipitation with anti-lamin A/C antibody, with or without resveratrol (FIG. 3C)
[8] = biological target: FLAG-tagged SIRT1 (ectopically expressed in HEK293 cells) (UniProt Q96EB6); experiment: reciprocal co-immunoprecipitation in HEK293 cells expressing FLAG-SIRT1 (FIG. 1A)
[9] = biological target: FLAG-tagged SIRT1 (ectopically expressed in HEK293 cells) (UniProt Q96EB6); experiment: reciprocal co-immunoprecipitation in transfected HEK293 cells, Western blot (FIG. 1A)
[10] = biological target: FLAG-tagged SIRT1 (ectopically expressed in HEK293 cells) (UniProt Q96EB6); experiment: anti-FLAG co-immunoprecipitation in HEK293 cells treated with resveratrol (FIGS. 3D, 3E)
[11] = biological target: FLAG-tagged SIRT1 (ectopically expressed in HEK293 cells) (UniProt Q96EB6); experiment: co-immunoprecipitation in HEK293 cells expressing FLAG-SIRT1 with lamin A or lamin C (FIG. 1F)
[12] = biological target: FLAG-tagged SIRT1 (ectopically expressed in HEK293 cells) (UniProt Q96EB6); experiment: anti-FLAG co-immunoprecipitation in transfected HEK293 cells, Western blot and quantification (FIGS. 1G, 1H)
[13] = biological target: FLAG-tagged SIRT1 (ectopically expressed in HEK293 cells) (UniProt Q96EB6); experiment: anti-FLAG co-immunoprecipitation in co-transfected HEK293 cells treated with resveratrol, Western blot (FIG. 3D)

Measured: binding

endogenous lamin A of HEK293 cells (from UniProt P02545 1-646)
binds: [1] | [2]

prelamin A of Zmpste24^-/- mouse bone marrow stromal cells (from UniProt P48678 1-662)
binds: [3]

recombinant human lamin A (Diatheva, Italy) (from UniProt P02545 1-646)
binds: [4] | [5] | [6] | [7]

wild-type lamin A (ectopically expressed in HEK293 cells) (from UniProt P02545 1-646)
binds: [8] | [9] | [10] | [11] | [12] | [13]
